The record followed here is paper PMC11696352.

Sequences of proteins named here, by UniProt entry; tags and fusion partners are left off.
UniProt P52294: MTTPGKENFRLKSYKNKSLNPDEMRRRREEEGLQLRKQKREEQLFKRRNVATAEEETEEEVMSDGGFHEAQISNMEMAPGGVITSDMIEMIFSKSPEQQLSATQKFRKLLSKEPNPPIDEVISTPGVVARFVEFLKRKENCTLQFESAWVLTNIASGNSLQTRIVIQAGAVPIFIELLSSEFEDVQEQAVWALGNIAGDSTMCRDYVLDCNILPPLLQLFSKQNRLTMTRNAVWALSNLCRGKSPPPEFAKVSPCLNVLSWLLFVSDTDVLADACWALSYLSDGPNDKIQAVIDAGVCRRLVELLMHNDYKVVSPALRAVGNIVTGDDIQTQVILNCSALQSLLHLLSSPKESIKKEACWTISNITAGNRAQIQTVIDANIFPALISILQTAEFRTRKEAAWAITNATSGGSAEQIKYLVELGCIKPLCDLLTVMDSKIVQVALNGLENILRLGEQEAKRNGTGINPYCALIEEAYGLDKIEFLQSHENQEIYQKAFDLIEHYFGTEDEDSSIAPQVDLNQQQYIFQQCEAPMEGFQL

Read-outs that look alike come from different tables or passages of the source. Results are given in words; binding and its absence hold for the method and conditions named. Binding seen in cells or lysates may run through a third protein. These calls come from enrichment with a bait or labelling near it, and not all partners need be listed. Sequences can lack the tags named with a protein.

Test [1] has as its target T1, Flag-tagged GCLM WT (glutamate-cysteine ligase modifier subunit) (UniProt P48507).
T1 sequence: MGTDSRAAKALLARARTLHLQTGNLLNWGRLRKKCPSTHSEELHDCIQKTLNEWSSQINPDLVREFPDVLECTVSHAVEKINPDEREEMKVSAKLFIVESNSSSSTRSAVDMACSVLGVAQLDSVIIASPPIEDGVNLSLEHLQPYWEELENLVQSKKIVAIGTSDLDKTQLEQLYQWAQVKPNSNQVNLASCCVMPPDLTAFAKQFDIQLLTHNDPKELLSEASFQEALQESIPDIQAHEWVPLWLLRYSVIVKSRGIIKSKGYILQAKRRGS
Kind of test: affinity purification with mass spectrometry; anti-FLAG or IgG immunoprecipitation from total lysate or cytoplasmic and nuclear fractions of 293T cells overexpressing Flag-GCLM, oxaliplatin treatment (40 μM, 24 h); LC-MS/MS.

Test [2] deals with T1, Flag-tagged GCLM WT (glutamate-cysteine ligase modifier subunit). Described as above. The source holds these as a separate data set.

As to “importin α5 (also known as KPNA1), endogenous (from UniProt P52294 1-538)”, the binding entry in test [1] is listed as “binds”.

B1: NF-κB-repressing factor (NKRF), endogenous (protein, UniProt O15226 1-690)
chain: MEKILQMAEGIDIGEMPSYDLVLSKPSKGQKRHLSTCDGQNPPKKQAGSKFHARPRFEPVHFVASSSKDERQEDPYGPQTKEVNEQTHFASMPRDIYQDYTQDSFSIQDGNSQYCDSSGFILTKDQPVTANMYFDSGNPAPSTTSQQANSQSTPEPSPSQTFPESVVAEKQYFIEKLTATIWKNLSNPEMTSGSDKINYTYMLTRCIQACKTNPEYIYAPLKEIPPADIPKNKKLLTDGYACEVRCQNIYLTTGYAGSKNGSRDRATELAVKLLQKRIEVRVVRRKFKHTFGEDLVVCQIGMSSYEFPPALKPPEDLVVLGKDASGQPIFNASAKHWTNFVITENANDAIGILNNSASFNKMSIEYKYEMMPNRTWRCRVFLQDHCLAEGYGTKKTSKHAAADEALKILQKTQPTYPSVKSSQCHTGSSPRGSGKKKDIKDLVVYENSSNPVCTLNDTAQFNRMTVEYVYERMTGLRWKCKVILESEVIAEAVGVKKTVKYEAAGEAVKTLKKTQPTVINNLKKGAVEDVISRNEIQGRSAEEAYKQQIKEDNIGNQLLRKMGWTGGGLGKSGEGIREPISVKEQHKREGLGLDVERVNKIAKRDIEQIIRNYARSESHTDLTFSRELTNDERKQIHQIAQKYGLKSKSHGVGHDRYLVVGRKRRKEDLLDQLKQEGQVGHYELVMPQAN
On to B1, for which, in test [2], the binding entry is listed as “binds”.
